For assay [1], the target named is AtZTL (Arabidopsis thaliana ZEITLUPE) (Arabidopsis thaliana) (UniProt Q94BT6). Nature of the assay: two-hybrid; Matchmaker system (Clontech), yeast AH109; ZTL fused to GAL4 DNA binding domain (bait, pGBKT7), TOC1 fused to GAL4 activation domain (prey, pGADT7); growth on medium without Leu, Trp, His, Ade and beta-galactosidase activity.
Assay [2] addresses NaZTL (Nicotiana attenuata ZEITLUPE) (Nicotiana attenuata) (UniProt J9PVN1). The description is as above.

Sequences of proteins named here, by UniProt entry; tags and fusion partners are left off.
UniProt Q94BT6: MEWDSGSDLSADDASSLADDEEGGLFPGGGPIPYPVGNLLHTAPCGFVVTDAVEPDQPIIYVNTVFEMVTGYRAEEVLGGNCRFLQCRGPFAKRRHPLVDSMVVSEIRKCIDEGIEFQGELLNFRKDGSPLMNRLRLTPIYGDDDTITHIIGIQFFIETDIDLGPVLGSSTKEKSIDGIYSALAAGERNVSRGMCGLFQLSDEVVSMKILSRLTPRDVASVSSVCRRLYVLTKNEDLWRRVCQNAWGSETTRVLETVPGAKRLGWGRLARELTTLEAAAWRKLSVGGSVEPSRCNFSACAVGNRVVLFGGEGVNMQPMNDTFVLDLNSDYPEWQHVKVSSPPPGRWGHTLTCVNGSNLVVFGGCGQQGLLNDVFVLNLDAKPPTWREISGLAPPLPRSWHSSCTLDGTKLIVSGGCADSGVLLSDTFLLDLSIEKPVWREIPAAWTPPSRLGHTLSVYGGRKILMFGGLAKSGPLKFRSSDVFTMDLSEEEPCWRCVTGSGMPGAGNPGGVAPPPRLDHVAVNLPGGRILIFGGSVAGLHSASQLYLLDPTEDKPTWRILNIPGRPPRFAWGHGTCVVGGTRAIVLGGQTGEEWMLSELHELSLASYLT

These are yes or no findings as the source states them, for the method shown. A result given as binding can be weak or reduced; the word gives no strength.

As to “NaTOC1 (Nicotiana attenuata TIMING OF CAB EXPRESSION 1/PSEUDO-RESPONSE REGULATOR 1) (from UniProt J9PWT0)”, the binding entry in assay [1] and in assay [2] was “binds” each time.
